The values that follow come from patent US8709811B2, “Materials and methods for synthesis of a flavor and aroma volatile in plants” (University of Florida Research Foundation, Inc., priority 2003, dated 2014).

The data set concerns phenylalanine decarboxylase. Briefly: In vivo phenylalanine decarboxylase activity of tomato fruit pericarp disks fed 14C-phenylalanine. Particulars: 1 μCi 14C-phenylalanine, 8 hours.

Consider `NCCc1ccccc1` [phenethylamine], for which the nCi phenethylamine worked out at 2.08 ± 0.39 nCi (8-2-1 pericarp disks) and 0.36 ± 0.02 nCi (M82 pericarp disks).
For the compound `O=C=O` [CO2], the “nCi CO2” value worked out at 5.16 ± 2.36 nCi (8-2-1 pericarp disks) and 0.96 ± 0.05 nCi (M82 pericarp disks).
